# Reference: PubChem BioAssay AID504594 (Broad Institute, 2011)
# The whole screen tested about 2,000 compounds, of which fewer than 10 were called active.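 How the source made its calls: active means growth inhibition of at least 75% in every replicate, which also brings the mean inhibition to 75% or more; inconclusive means mean inhibition 75% or more but some replicate under 75%; inactive means the rest.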 This is one part of the list.
# Test: reduced viability of yeast carrying PfHsp90 – S. cerevisiae, BacTiter-Glo luminescence, antimalarial PfHsp90 inhibitor project, primary screen (AID 504594);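 further: 0% = DMSO neutral control wells and 100% = 20 µM radicicol control wells; higher value means stronger growth inhibition because the sign is flipped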
# Details: S. cerevisiae expressing PfHsp90, BacTiter-Glo growth, 48 h; at 9.4 µM; hits give high values
row,SMILES,growth inhibition
1,CC12CCC(C(=O)N3CCCCC3)([C@H](Br)C1=O)C2(C)C (some centres not stated),inactive: -1.37%
2,COc1ccc(C2C3C(C)=NN=C3CC(C)(O)C2C(C)=O)cc1 (configuration not stated),inactive: -3.73%
3,COc1cccc(OCc2nnc(-c3cccs3)o2)c1,inactive: -11.4%
4,CC12CCC(C(=O)NCc3ccc4c(c3)OCO4)(CC1=O)C2(C)C (configuration not stated),inactive: 11.3%
5,CC(=O)Nc1ccc(CN2CCN(C3CCCCC3)C(CCO)C2)cc1 (configuration not stated),inactive: 3.54%
6,CC1(C)O[C@@H]2C[C@H]3[C@@H]4C[C@H](F)C5=CC(=O)CC[C@]5(C)[C@H]4[C@@H](O)C[C@]3(C)[C@]2(C(=O)CO)O1,inactive: 8.56%
7,COCCCN1C(=O)/C(=C\c2cccs2)C(C(=O)OC)=C1C,inactive: -4.85%
8,CN1C(=O)NC(c2ccc(O)cc2)C2=C1CN(c1cccc3ccccc13)C2=O (configuration not stated),inactive: 11.9%
9,Cc1ccccc1N1C(N)=NC(N)=NC1(C)C,inactive: -2.95%
10,CCCCc1oc2ccccc2c1C(=O)c1cc(I)c(OCCN(CC)CC)c(I)c1,inactive: -7.73%
11,O=C(O)c1cccnc1,inactive: 18.4%
12,Cc1cccc(N(C)C(=S)Oc2ccc3ccccc3c2)c1,inactive: 5.35%
13,COc1ccc(C(=O)Nc2ccccc2C(=O)NC(Cc2c[nH]c3ccccc23)C(=O)O)cc1 (configuration not stated),inactive: 1.89%
14,O=C(O)c1cc2cc(F)ccc2[nH]1,inactive: 4.76%
15,Cc1nonc1CN(C)C(=O)c1ccc(OC2CCN(C(=O)c3cccnc3)CC2)cc1,inactive: -8.83%
16,NCCc1ccc(O)c(O)c1,inactive: -13.7%
17,CC(=O)c1cn(C)c(=O)[nH]c1=O,inactive: 10.3%
18,CC1=CC2(O)OCCN(CCO)C2=CC1=O (configuration not stated),inactive: -3.33%
19,COc1cccc(N2CC34C=CC(O3)C(C(=O)O)C4C2=O)c1 (configuration not stated),inactive: -1.36%

row,SMILES,growth inhibition
1,C[C@H](CS)C(=O)N1CCC[C@H]1C(=O)O,inactive: -1.46%
2,COc1ccc(/C=C(/C#N)c2cccnc2)cc1OC,inactive: -3.57%
3,Cc1c(CCOC(=O)CC23CC4CC(CC(C)(C4)C2)C3)sc[n+]1Cc1ccc([N+](=O)[O-])cc1,inactive: 5.74%
4,CC(=O)OCC(=O)[C@@]1(O)CC[C@H]2[C@@H]3CCC4=CC(=O)C=C[C@]4(C)[C@H]3[C@@H](O)C[C@@]21C,inactive: 1.99%
5,COC(=O)c1ccc(NC(=O)c2ccccc2SC)cc1,inactive: -6.84%
6,C[C@]12CC[C@@H]3c4ccc(O)cc4C(=O)C[C@H]3[C@@H]1CC[C@@H]2O,inactive: -8.64%
7,CC(=O)C1=C(O)C(=O)OC1c1ccc(C)cc1 (configuration not stated),inactive: 14.7%
8,COc1ccc(OC)c(C(=O)c2coc3ccc(O)cc23)c1,inactive: -5.76%
9,NS(=O)(=O)c1cc2c(cc1Cl)NC(C1C[C@H]3C=C[C@@H]1C3)NS2(=O)=O (some centres not stated),inactive: 8.58%
10,C[C@H](NC(=O)C1(c2ccccc2)CCN(C(=O)[C@H]2CSCN2C(=O)OC(C)(C)C)CC1)C(=O)O,inactive: -9.59%
11,COc1cc(CO)ccc1OCc1nnnn1-c1ccc(C)cc1,inactive: 0.995%
12,CCCCOc1ccc(C(=O)CCN2CCCCC2)cc1,inactive: -0.129%
13,OC(CCN1CCCC1)(c1ccccc1)C1CCCCC1 (configuration not stated),inactive: 2.6%
14,COCCNC(=O)CSc1ccc(Cl)cc1,inactive: -5.34%
15,CC(C)(C)c1ccc(/C=C/C(=O)N2CCCCC2)cc1,inactive: 4.98%
16,Cc1ccc(C(=O)COC(=O)c2cnccn2)cc1[N+](=O)[O-],inactive: -1.07%
17,NC12CC3CC(C1)CC(O)(C3)C2,inactive: -4.05%
18,COc1cc(OC)cc(C(=O)N[C@@H](CCSC)c2nc3ccccc3[nH]2)c1,inactive: -0.625%
19,Cc1[nH]c2ccccc2c1C(=O)CN1CCCC1,inactive: -6.07%

row,SMILES,growth inhibition
1,COc1cc2c(cc1OC)CN(Cc1ccc(C)s1)CC2,inactive: -0.416%
2,CC(C)C1Cc2[nH]c(=O)c(C(=O)O)cc2CO1 (configuration not stated),inactive: -4.36%
3,CC1(C)Cc2nc3sc4c(=O)n(CC(N)=O)cnc4c3cc2CO1,inactive: -2.88%
4,NC[C@H]1O[C@H](O[C@H]2[C@H](O)[C@@H](O[C@H]3O[C@H](CO)[C@@H](O)[C@H](N)[C@H]3O)[C@H](N)C[C@@H]2N)[C@H](N)C[C@@H]1O,inactive: 2.83%
5,COc1cc(-c2nnc(-c3cccs3)o2)cc(OC)c1OC,inactive: -0.327%
6,COC(=O)c1cc(COc2ccc3ccc(=O)oc3c2)c(C)o1,inactive: -0.939%
7,Cc1cc(C(C)(C)C)cc(C)c1CC1=NCCN1,inactive: 2.82%
8,CCN(CCCCOC(=O)c1ccc(OC)c(OC)c1)C(C)Cc1ccc(OC)cc1 (configuration not stated),inactive: 8.11%
9,C[C@@H]1C[C@H]2[C@@H]3CCC4=CC(=O)C=C[C@]4(C)[C@@]3(F)[C@@H](O)C[C@]2(C)[C@H]1C(=O)CO,inactive: 0.178%
10,COc1cc2nc(N3CCN(C(=O)C4COc5ccccc5O4)CC3)nc(N)c2cc1OC (configuration not stated),inactive: -1.97%
11,COc1cc(CNCCc2c[nH]c3ccccc23)cc(Cl)c1OCC(N)=O,inactive: -1.9%
12,FC(F)(F)c1ccc(-c2noc(CN3CCCN(C4CCCCC4)CC3)n2)cc1,inactive: 11%
13,COc1ccc(Cl)cc1C(=O)NCCc1ccc(S(=O)(=O)NC(=O)NC2CCCCC2)cc1,inactive: 1.64%
14,CC(=O)OCC(=O)C1=CCC2C3CCC4=CC(=O)C=CC4(C)C3(F)C(OC(C)=O)CC12C (configuration not stated),inactive: 11.1%
15,CC#C[C@]1(O)CC[C@H]2[C@@H]3CCC4=CC(=O)CCC4=C3[C@@H](c3ccc(N(C)C)cc3)C[C@@]21C,inactive: -5.19%
16,COc1ccc(CCNC(=O)CC(c2ccccc2)c2cccc(C)c2O)cc1OC (configuration not stated),inactive: -1.09%
17,COc1ccc(/C=C2\CCc3ccccc3C2=O)c(OC)c1OC,inactive: -0.439%
18,CCOC(=O)C1=C(N)Oc2c(c(=O)[nH]c3ccccc23)C1c1ccccc1 (configuration not stated),inactive: 4.35%
19,CC1(C)O[C@@H]2C[C@H]3[C@@H]4C[C@H](F)C5=CC(=O)C=C[C@]5(C)[C@@]4(F)[C@@H](O)C[C@]3(C)[C@]2(C(=O)CO)O1,inactive: -12.5%

# 2 successive records out of the list so far, for reference:
row,SMILES,growth inhibition
7,Cc1cc(C(C)(C)C)cc(C)c1CC1=NCCN1,inactive: 2.82%
8,CCN(CCCCOC(=O)c1ccc(OC)c(OC)c1)C(C)Cc1ccc(OC)cc1 (configuration not stated),inactive: 8.11%
